According to the supplement of paper PMC10849652:
Some of the results follow. Residues, ends and D or L forms follow the SMILES beside them. *: point of attachment. Cbz = O=C(OCc1ccccc1)*

The chains behind the UniProt entries cited, without tags or fusion partners. Where a name states a change or a piece, a line headed by the entry shows the natural chain unless it says otherwise.
UniProt P32929, whole entry, looked up: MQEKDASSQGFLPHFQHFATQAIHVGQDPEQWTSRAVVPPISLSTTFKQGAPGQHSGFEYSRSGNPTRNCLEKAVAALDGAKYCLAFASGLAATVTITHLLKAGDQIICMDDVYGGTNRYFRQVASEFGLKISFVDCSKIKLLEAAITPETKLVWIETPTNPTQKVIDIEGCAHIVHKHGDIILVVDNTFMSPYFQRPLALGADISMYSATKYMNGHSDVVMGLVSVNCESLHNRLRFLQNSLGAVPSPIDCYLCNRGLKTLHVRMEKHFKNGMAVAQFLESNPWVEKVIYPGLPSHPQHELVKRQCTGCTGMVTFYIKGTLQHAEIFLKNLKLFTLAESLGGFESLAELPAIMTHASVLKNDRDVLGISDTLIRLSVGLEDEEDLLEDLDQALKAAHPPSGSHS
UniProt Q96C86: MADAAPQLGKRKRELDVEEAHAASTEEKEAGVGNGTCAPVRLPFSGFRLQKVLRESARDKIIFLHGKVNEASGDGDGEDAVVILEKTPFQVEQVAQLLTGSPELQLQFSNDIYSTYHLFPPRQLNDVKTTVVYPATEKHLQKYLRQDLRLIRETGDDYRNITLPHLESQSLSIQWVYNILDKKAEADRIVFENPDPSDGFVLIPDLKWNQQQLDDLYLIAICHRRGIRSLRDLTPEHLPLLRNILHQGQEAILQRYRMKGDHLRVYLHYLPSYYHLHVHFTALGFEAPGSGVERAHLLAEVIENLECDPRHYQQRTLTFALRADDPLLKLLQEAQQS
UniProt P07108: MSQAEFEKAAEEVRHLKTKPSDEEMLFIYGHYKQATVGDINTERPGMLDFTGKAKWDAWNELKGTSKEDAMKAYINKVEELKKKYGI
UniProt Q13619, whole entry, looked up: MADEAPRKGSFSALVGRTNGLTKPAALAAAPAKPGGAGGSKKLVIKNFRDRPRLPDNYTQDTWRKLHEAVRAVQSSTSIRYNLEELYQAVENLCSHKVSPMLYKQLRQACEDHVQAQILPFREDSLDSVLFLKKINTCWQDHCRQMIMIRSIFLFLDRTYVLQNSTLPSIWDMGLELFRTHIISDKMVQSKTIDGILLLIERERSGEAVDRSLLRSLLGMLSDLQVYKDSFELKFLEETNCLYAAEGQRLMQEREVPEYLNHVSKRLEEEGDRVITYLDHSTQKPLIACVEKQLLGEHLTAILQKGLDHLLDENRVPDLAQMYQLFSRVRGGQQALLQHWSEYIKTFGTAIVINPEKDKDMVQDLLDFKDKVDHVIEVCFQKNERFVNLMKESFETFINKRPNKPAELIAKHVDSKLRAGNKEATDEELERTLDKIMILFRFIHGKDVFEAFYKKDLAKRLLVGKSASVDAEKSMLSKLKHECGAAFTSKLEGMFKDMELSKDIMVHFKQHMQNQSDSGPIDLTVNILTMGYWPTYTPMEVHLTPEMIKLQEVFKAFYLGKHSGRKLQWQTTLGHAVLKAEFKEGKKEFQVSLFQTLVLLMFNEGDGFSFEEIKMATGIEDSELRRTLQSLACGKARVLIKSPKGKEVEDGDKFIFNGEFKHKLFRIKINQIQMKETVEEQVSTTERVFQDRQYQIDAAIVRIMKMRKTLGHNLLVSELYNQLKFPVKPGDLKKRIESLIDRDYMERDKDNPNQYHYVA
UniProt P61962: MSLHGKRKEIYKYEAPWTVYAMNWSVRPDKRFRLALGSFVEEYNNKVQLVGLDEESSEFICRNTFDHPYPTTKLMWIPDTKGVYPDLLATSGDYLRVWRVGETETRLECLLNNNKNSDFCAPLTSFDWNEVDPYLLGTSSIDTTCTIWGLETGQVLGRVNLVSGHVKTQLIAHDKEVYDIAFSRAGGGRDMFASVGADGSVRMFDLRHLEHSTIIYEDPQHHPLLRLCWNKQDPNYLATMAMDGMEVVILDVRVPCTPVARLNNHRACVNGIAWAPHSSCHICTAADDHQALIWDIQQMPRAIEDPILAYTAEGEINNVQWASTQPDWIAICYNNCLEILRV
UniProt Q9NRF8: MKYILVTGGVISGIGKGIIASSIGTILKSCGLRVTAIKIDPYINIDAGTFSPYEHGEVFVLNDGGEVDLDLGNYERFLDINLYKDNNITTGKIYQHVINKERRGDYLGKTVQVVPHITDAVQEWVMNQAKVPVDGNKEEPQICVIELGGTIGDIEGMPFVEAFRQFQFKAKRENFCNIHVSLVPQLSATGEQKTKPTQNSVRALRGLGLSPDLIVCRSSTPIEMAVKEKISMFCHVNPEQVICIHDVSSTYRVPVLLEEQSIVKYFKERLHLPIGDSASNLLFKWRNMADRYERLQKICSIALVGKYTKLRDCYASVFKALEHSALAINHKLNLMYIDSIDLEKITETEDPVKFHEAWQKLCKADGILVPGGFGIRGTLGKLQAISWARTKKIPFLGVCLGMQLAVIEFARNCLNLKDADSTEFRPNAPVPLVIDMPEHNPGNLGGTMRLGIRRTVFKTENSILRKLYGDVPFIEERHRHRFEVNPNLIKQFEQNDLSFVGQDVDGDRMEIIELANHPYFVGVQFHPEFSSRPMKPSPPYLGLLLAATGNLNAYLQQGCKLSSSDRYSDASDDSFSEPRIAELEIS
UniProt Q6UW02: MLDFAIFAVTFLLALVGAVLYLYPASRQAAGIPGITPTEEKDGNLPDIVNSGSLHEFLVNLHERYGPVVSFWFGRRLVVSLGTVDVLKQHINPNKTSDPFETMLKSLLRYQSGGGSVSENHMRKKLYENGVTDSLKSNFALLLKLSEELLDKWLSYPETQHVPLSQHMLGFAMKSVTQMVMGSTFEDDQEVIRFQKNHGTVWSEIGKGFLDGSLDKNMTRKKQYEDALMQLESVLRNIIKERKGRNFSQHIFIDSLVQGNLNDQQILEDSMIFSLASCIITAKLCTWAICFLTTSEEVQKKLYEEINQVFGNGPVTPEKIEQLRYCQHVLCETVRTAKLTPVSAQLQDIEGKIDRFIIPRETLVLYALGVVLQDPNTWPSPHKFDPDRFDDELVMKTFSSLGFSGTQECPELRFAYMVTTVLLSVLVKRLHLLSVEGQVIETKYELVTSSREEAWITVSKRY
UniProt P17812: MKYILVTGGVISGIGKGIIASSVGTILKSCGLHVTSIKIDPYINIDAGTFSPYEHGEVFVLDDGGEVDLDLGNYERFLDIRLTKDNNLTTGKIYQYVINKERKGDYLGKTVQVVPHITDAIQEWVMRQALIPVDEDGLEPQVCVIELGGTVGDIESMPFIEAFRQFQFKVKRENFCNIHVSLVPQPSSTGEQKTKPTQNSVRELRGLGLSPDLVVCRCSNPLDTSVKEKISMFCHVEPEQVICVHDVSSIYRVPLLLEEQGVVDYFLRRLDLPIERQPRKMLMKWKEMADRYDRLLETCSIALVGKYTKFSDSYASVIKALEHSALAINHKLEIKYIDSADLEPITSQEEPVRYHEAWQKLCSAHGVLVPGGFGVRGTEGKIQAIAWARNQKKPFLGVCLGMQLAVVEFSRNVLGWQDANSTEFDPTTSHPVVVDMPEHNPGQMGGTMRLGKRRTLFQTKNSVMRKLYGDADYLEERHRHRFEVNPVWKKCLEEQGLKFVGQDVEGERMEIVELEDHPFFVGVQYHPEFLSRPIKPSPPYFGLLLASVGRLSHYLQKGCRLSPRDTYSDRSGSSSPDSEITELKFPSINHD
UniProt P27707: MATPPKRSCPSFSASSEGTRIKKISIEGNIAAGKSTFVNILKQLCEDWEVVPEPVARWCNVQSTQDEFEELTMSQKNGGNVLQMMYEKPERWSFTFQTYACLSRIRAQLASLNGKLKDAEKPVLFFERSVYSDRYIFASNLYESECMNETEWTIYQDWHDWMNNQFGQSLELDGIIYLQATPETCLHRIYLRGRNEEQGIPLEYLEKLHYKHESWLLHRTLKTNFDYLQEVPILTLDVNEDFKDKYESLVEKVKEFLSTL
UniProt P14868: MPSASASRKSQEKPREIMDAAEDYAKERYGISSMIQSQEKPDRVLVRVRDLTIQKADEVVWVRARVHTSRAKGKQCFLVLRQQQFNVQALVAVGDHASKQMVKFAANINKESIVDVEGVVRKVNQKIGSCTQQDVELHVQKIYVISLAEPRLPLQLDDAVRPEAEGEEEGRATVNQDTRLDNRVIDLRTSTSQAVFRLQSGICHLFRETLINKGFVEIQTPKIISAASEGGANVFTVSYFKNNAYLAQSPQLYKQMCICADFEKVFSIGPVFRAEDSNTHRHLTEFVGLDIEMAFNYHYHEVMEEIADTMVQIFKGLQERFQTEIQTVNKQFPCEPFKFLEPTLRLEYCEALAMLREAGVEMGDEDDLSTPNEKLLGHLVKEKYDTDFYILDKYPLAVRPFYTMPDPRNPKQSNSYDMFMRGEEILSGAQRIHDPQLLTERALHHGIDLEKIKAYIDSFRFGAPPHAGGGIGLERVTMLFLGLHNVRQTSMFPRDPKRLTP
UniProt Q9NWV4: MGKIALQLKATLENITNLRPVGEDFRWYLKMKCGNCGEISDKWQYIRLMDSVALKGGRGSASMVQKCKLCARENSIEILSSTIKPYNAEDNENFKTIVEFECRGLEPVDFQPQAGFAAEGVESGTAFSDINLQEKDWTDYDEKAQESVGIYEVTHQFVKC
UniProt Q9P013: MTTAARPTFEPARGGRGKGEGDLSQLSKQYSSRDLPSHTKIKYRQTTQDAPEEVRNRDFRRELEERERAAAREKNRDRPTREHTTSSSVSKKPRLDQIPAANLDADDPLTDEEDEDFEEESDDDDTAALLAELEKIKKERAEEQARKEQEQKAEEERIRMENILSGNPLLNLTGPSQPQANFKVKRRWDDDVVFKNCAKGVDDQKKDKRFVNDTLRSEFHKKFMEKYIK
UniProt Q96C57: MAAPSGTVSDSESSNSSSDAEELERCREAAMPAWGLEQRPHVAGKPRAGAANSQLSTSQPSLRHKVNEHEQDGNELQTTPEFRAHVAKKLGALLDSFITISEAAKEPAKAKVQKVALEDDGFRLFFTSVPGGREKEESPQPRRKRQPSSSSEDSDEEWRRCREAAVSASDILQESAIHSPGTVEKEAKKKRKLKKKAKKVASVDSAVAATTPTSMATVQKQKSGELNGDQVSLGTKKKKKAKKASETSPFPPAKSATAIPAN
UniProt P0DMU8: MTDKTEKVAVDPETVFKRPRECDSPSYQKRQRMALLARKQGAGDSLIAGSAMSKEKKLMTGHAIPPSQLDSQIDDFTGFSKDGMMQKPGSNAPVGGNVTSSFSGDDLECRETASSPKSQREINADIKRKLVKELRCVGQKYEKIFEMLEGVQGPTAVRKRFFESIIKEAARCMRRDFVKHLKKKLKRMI
UniProt Q9H0L4: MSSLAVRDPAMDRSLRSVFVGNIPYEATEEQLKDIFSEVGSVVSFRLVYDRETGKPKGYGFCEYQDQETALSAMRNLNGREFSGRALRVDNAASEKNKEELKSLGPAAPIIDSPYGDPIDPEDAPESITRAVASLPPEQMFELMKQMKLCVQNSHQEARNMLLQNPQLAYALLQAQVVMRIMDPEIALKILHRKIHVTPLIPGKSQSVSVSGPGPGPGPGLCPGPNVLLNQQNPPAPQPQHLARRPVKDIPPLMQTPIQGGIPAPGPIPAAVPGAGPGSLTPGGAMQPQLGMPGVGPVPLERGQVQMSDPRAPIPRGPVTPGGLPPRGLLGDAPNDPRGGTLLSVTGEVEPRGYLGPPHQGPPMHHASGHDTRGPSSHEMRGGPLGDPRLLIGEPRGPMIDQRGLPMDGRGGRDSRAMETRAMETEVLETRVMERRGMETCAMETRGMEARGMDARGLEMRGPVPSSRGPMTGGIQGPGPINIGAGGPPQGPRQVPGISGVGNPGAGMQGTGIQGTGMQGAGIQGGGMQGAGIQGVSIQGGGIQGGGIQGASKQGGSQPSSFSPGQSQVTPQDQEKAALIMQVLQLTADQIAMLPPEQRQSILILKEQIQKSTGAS

Experiments:
Assay in all cases: log2 fold change, soluble protein after heating vs DMSO (PISA); higher = thermal stabilisation; K562 cells, 10 uM, 30 min; active = over 0.2 and 3.5 SD of the protein, either way, in both replicates (recomputed)
[1] = compound: C1COCCN1CCN2C3=CC=CC=C3N=C2NC(=O)C4=CC(=CC=C4)[N+](=O)[O-] [IRAK-1-4 Inhibitor I]
Method in brief: (§1)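 Aliquots of K562 cells (2×10^6 cells/mL) treated with 10 μM compound for 30 min were heated for 3 min over 48°C-58°C. After pooling and extraction in PBS with 0.5% NP-40 at 4°C, soluble protein from a 21,000xg, 90 min spin was quantified by TMTpro 16plex LC-MS/MS with channel sums equalised. Thermal stability is expressed against control samples, from duplicates, as a log2 fold change.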

[2] = compound: C=CC(=O)N1CCC[C@@H](n2nc(-c3ccc(Oc4ccccc4)cc3)c3c(N)ncnc32)C1 [ibrutinib]
Method in brief: as §1

[3] = compound: CC(=O)c1cnc2ccc(-c3cc(Cl)c(O)c(Cl)c3)nc2c1N[C@H]1CC[C@H](CN(C)C)CC1
Method in brief: as §1

[4] = compound: CC(C)(C)Cn1c(N)nc2ccc(-c3[nH]c(C(C)(C)C)nc3-c3ccc(F)cc3)nc21 [ralimetinib]
Method in brief: as §1

[5] = compound: CC(C)(O)CC(=O)NCCn1ccc2ncnc(Nc3ccc(Oc4cccc(C(F)(F)F)c4)c(Cl)c3)c21
Method in brief: as §1

[6] = compound: CC(C)C1=C2N=C(C=C(N2N=C1)NCC3=CC=CC=C3)NCCCCCCN
Method in brief: as §1

[7] = compound: CC(C)C[C@@H](C=O)NC(=O)[C@H](CC(C)C)NC(=O)[C@H](CC(C)C)NC(=O)OCc1ccccc1
Method in brief: as §1

[8] = compound: CC(C)N(C[C@H]1O[C@@H](n2cnc3c(N)ncnc32)[C@H](O)[C@@H]1O)[C@H]1C[C@@H](CCc2nc3cc(C(C)(C)C)ccc3[nH]2)C1 [pinometostat]
Method in brief: as §1

[9] = compound: CC1=C(C(CC(=O)N1)C2=CC=C(C=C2)C(F)(F)F)C(=O)NC3=C(C=C4C(=C3)C=NN4)F
Method in brief: as §1

[10] = compound: CC1=C(C2=C(C=C1)C(=O)C3=CC=CC=C3N2CCCN)C
Method in brief: as §1

[11] = compound: CC1=C(C=C(C=C1)NC(=O)C2=CC(=CC=C2)C(C)(C)C#N)NC3=CC4=C(C=C3)N=CN(C4=O)C
Method in brief: as §1

[12] = compound: CC1=C(C=C(C=C1)NC(=O)C2=CC(=CC=C2)N(C)C)NC(=O)C3=CC=C(C=C3)O
Method in brief: as §1

[13] = compound: CC1=CC=C(C=C1)SC2=C3C=C(SC3=CN=C2)C(=O)N
Method in brief: as §1

[14] = compound: CC1=NC(=CC=C1)C2=C(N=C(N2)C(C)(C)C)C3=CC4=NC=CN=C4C=C3
Method in brief: as §1

[15] = compound: CCCCN(Cc1ccc(C(=O)NO)cc1)C(=O)Nc1ccccc1 [Nexturastat A]
Method in brief: as §1

[16] = compound: CCCS(=O)(=O)Nc1ccc(F)c(C(=O)c2c[nH]c3ncc(-c4ccc(Cl)cc4)cc23)c1F [vemurafenib]
Method in brief: as §1

[17] = compound: CCCS(=O)(=O)Nc1ccc(F)c(C(=O)c2c[nH]c3ncc(Cl)cc23)c1F
Method in brief: as §1

[18] = compound: CCCc1cc(C)[nH]c(=O)c1CNC(=O)c1cc(-c2ccnc(N3CCN(C)CC3)c2)cc2c1cnn2C(C)C
Method in brief: as §1

[19] = compound: CCN(CC)Cc1ccc2cc(COC(=O)Nc3ccc(C(=O)NO)cc3)ccc2c1 [givinostat]
Method in brief: as §1

[20] = compound: CCN(CCCOc1ccc2c(Nc3cc(CC(=O)Nc4cccc(F)c4)[nH]n3)ncnc2c1)CCOP(=O)(O)O [barasertib]
Method in brief: as §1

Measured: log2 fold change

CTH (UniProt P32929)
inactive: [1] 0.028 | [2] 0.009 | [3] 0.05 | [4] 0.006 | [5] -0.017 | [6] 0.051 | [7] -0.069 | [8] -0.049 | [9] 0.048 | [10] -0.031 | [11] 0.039 | [12] -0.011 | [13] 0.056 | [14] 0.018 | [15] -0.046 | [16] 0.007 | [17] 0.019 | [18] -0.05 | [19] -0.023 | [20] -0.033

DCPS (UniProt Q96C86)
inactive: [1] 0.048 | [2] 0.014 | [3] -0.02 | [4] -0.044 | [5] 0.014 | [6] 0.093 | [7] 0.008 | [8] -0.067 | [9] 0.013 | [10] 0.012 | [11] -0.056 | [12] 0.021 | [13] -0.009 | [14] 0.018 | [15] 0.039 | [16] 0.008 | [17] 0.003 | [18] -0.03 | [19] 0.008 | [20] -0.002

DBI isoform 5 (UniProt P07108)
inactive: [1] -0.056 | [2] 0.041 | [3] -0.017 | [4] -0.167 | [5] -0.003 | [6] 0.1 | [7] -0.034 | [8] -0.08 | [9] 0.068 | [10] 0.191 | [11] -0.021 | [12] -0.114 | [13] 0.052 | [14] 0.023 | [15] 0.159 | [16] 0.011 | [17] -0.039 | [18] 0.012 | [19] 0.012 | [20] 0.035

CUL4A (UniProt Q13619)
inactive: [1] -0.004 | [2] -0.016 | [3] -0.007 | [4] 0.013 | [5] -0.048 | [6] -0.012 | [7] -0.04 | [8] -0.038 | [9] 0.01 | [10] -0.008 | [11] 0.037 | [12] -0.029 | [13] 0.036 | [14] 0.075 | [15] -0.017 | [16] -0.001 | [17] 0.061 | [18] -0.029 | [19] 0.033 | [20] 0.01

DCAF7 (UniProt P61962)
inactive: [1] 0.044 | [2] 0.015 | [3] -0.075 | [4] -0.046 | [5] -0.012 | [6] -0.029 | [7] 0.099 | [8] 0.017 | [9] 0.035 | [10] 0.02 | [11] 0.01 | [12] -0.005 | [13] 0.014 | [14] 0.044 | [15] 0.028 | [16] -0.018 | [17] -0.002 | [18] -0.02 | [19] 0.016 | [20] 0.007

CTPS2 (UniProt Q9NRF8)
inactive: [1] 0.004 | [2] 0.011 | [3] 0.02 | [4] -0.026 | [5] -0.011 | [6] 0.067 | [7] -0.038 | [8] -0.056 | [9] 0.036 | [10] 0.019 | [11] 0.007 | [12] 0.031 | [13] 0.042 | [14] 0.014 | [15] -0.098 | [16] -0.016 | [17] 0.02 | [18] -0.042 | [19] -0.009 | [20] -0.026

CYP20A1 (UniProt Q6UW02)
inactive: [1] 0.031 | [2] -0.066 | [3] 0 | [4] -0.047 | [5] -0.081 | [6] -0.047 | [7] -0.053 | [8] 0.047 | [9] -0.012 | [10] 0.02 | [11] 0.004 | [12] 0.026 | [13] 0.011 | [14] 0.015 | [15] -0.118 | [16] 0.017 | [17] 0.006 | [18] -0.023 | [19] 0.057 | [20] 0.005

CTPS1 (UniProt P17812)
inactive: [1] 0.045 | [2] 0.017 | [3] 0.019 | [4] -0.033 | [5] -0.021 | [6] 0.041 | [7] -0.014 | [8] -0.032 | [9] 0.033 | [10] 0.018 | [11] -0.023 | [12] 0.02 | [13] 0.013 | [14] 0.022 | [15] -0.08 | [16] -0.025 | [17] 0.004 | [18] -0.021 | [19] -0.024 | [20] -0.002

DCK (UniProt P27707)
inactive: [1] 0.09 | [2] 0.025 | [3] 0.046 | [4] 0.063 | [5] -0.054 | [6] 0.051 | [7] -0.023 | [8] -0.011 | [9] 0.012 | [10] 0.04 | [11] 0.055 | [12] 0.005 | [13] 0.007 | [14] 0.025 | [15] -0.024 | [16] 0.038 | [17] 0.021 | [18] -0.075 | [19] 0.115 | [20] 0.004

DARS (UniProt P14868)
inactive: [1] -0.005 | [2] 0.035 | [3] 0.04 | [4] 0.016 | [5] 0.038 | [6] 0.046 | [7] 0.026 | [8] 0.066 | [9] 0.024 | [10] -0.015 | [11] -0.051 | [12] 0.008 | [13] -0.025 | [14] -0.033 | [15] 0.052 | [16] -0.026 | [17] -0.031 | [18] -0.008 | [19] -0.001 | [20] -0.002

CZIB (UniProt Q9NWV4)
inactive: [1] 0.037 | [2] -0.002 | [3] 0.044 | [4] -0.062 | [5] -0.015 | [6] -0.002 | [7] 0 | [8] -0.021 | [9] -0.012 | [10] -0.062 | [11] -0.01 | [12] -0.019 | [13] -0.017 | [14] 0.05 | [15] -0.103 | [16] 0.012 | [17] 0.003 | [18] -0.051 | [19] -0.086 | [20] 0.016

CUL4B (UniProt K4DI93)
inactive: [1] 0.028 | [2] 0.018 | [3] -0.016 | [4] -0.022 | [5] -0.026 | [6] 0.021 | [7] -0.07 | [8] -0.024 | [9] -0.009 | [10] 0.006 | [11] -0.011 | [12] -0.013 | [13] 0.039 | [14] 0.015 | [15] -0.036 | [16] 0.004 | [17] -0.002 | [18] 0.011 | [19] -0.004 | [20] 0.018

CWC15 (UniProt Q9P013)
inactive: [1] 0.044 | [2] 0.058 | [3] 0.135 | [4] -0.112 | [5] 0.059 | [6] 0.095 | [7] 0.059 | [8] -0.022 | [9] 0.022 | [10] 0.044 | [11] -0.045 | [12] 0.024 | [13] -0.031 | [14] -0.017 | [15] -0.03 | [16] -0.045 | [17] -0.111 | [18] -0.072 | [19] -0.004 | [20] -0.016

Taken from above (two entries):
CZIB (UniProt Q9NWV4)
inactive: [1] 0.037 | [2] -0.002 | [3] 0.044 | [4] -0.062 | [5] -0.015 | [6] -0.002 | [7] 0 | [8] -0.021 | [9] -0.012 | [10] -0.062 | [11] -0.01 | [12] -0.019 | [13] -0.017 | [14] 0.05 | [15] -0.103 | [16] 0.012 | [17] 0.003 | [18] -0.051 | [19] -0.086 | [20] 0.016

CUL4B (UniProt K4DI93)
inactive: [1] 0.028 | [2] 0.018 | [3] -0.016 | [4] -0.022 | [5] -0.026 | [6] 0.021 | [7] -0.07 | [8] -0.024 | [9] -0.009 | [10] 0.006 | [11] -0.011 | [12] -0.013 | [13] 0.039 | [14] 0.015 | [15] -0.036 | [16] 0.004 | [17] -0.002 | [18] 0.011 | [19] -0.004 | [20] 0.018

Next part:

CUSTOS (UniProt Q96C57)
inactive: [1] 0.042 | [2] 0.052 | [3] 0.017 | [4] 0.002 | [5] 0.015 | [6] 0.075 | [7] -0.031 | [8] -0.017 | [9] 0.006 | [10] -0.007 | [11] -0.016 | [12] 0.004 | [13] 0.02 | [14] -0.009 | [15] 0.042 | [16] -0.014 | [17] 0.021 | [18] 0.01 | [19] -0.024 | [20] -0.038

CT45A5 (UniProt P0DMU8)
inactive: [1] -0.121 | [2] -0.032 | [3] 0.051 | [4] 0.16 | [5] 0.055 | [6] 0.06 | [7] 0.045 | [8] 0.103 | [9] 0.009 | [10] -0.089 | [11] 0.042 | [12] -0.031 | [13] -0.042 | [14] -0.05 | [15] 0.068 | [16] -0.052 | [17] 0.019 | [18] 0.095 | [19] 0.022 | [20] -0.105

CSTF2T (UniProt Q9H0L4)
inactive: [1] 0.003 | [2] -0.025 | [3] 0.007 | [4] -0.005 | [5] -0.018 | [6] 0.062 | [7] -0.025 | [8] -0.041 | [9] -0.017 | [10] 0.16 | [11] 0.004 | [12] 0.004 | [13] -0.006 | [14] 0.015 | [15] -0.099 | [16] 0.021 | [17] -0.042 | [18] -0.065 | [19] -0.006 | [20] -0.022
